Data source: PubChem BioAssay AID1259254 (NCATS, 2017)

Screen: 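Gene knock-downs that lead to re-replication, shown by excess G2 DNA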 (primary screen)
Cell system: human HCT116 colorectal cancer cells
Reagent: single siRNA against human genes
Timing: 3 days
Measured: 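Nuclei stained with Hoechst and imaged; cell-cycle phase assigned by DNA content; G2 share scaled per plate, non-targeting siRNA 0%, GMNN siRNA 100%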
Reading the numbers: G2 robust z-score: higher = more G2 cells, more excess DNA replication
Active means: 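Active siRNAs have a G2 robust z of 5 or more median absolute deviations over the median, which in these data means about 38% or higher of GMNN control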
Shown is one part, drawn at random, of about 59,000 deposited reagents. About 1,550 of all reagents (2.6%) were called active. 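G2 share is only a proxy for re-replication; each gene was hit by three separate siRNAs, and active genes were retested.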 Not all columns of the deposit are shown. Not given: the amount of reagent.

REXO4 (RNA exonuclease 4) [SID160731583] | G2 robust z-score = 5.81; Call = active
REXO4 (RNA exonuclease 4) [SID160745614] | G2 robust z-score = -0.197; Call = inactive
REXO4 (RNA exonuclease 4) [SID160745615] | G2 robust z-score = 3.62; Call = inactive
RBM33 (RNA binding motif protein 33) [SID160759500] | G2 robust z-score = -0.595; Call = inactive
RBM33 (RNA binding motif protein 33) [SID160759501] | G2 robust z-score = -0.326; Call = inactive
RBM33 (RNA binding motif protein 33) [SID160759502] | G2 robust z-score = 1.61; Call = inactive
KHK (ketohexokinase) [SID160776265] | G2 robust z-score = -0.4; Call = inactive
KHK (ketohexokinase) [SID160776266] | G2 robust z-score = -0.383; Call = inactive
KHK (ketohexokinase) [SID160776268] | G2 robust z-score = 0.196; Call = inactive
ZNF75A (zinc finger protein 75A) [SID160719105] | G2 robust z-score = 0.0894; Call = inactive
ZNF75A (zinc finger protein 75A) [SID160719106] | G2 robust z-score = 2.52; Call = inactive
ZNF75A (zinc finger protein 75A) [SID160719107] | G2 robust z-score = 0.248; Call = inactive
GLI4 (GLI family zinc finger 4) [SID160723780] | G2 robust z-score = 1.41; Call = inactive
GLI4 (GLI family zinc finger 4) [SID160723781] | G2 robust z-score = -0.0692; Call = inactive
GLI4 (GLI family zinc finger 4) [SID160723782] | G2 robust z-score = -0.645; Call = inactive

The list goes on (3 carried over from the part before).
GLI4 (GLI family zinc finger 4) [SID160723780] | G2 robust z-score = 1.41; Call = inactive
GLI4 (GLI family zinc finger 4) [SID160723781] | G2 robust z-score = -0.0692; Call = inactive
GLI4 (GLI family zinc finger 4) [SID160723782] | G2 robust z-score = -0.645; Call = inactive
CTSK (cathepsin K) [SID160750682] | G2 robust z-score = 1.89; Call = inactive
CTSK (cathepsin K) [SID160750691] | G2 robust z-score = 3.32; Call = inactive
CTSK (cathepsin K) [SID160750700] | G2 robust z-score = -0.582; Call = inactive
ANXA2 (annexin A2) [SID160717751] | G2 robust z-score = 0.119; Call = inactive
ANXA2 (annexin A2) [SID160717761] | G2 robust z-score = 0.821; Call = inactive
ANXA2 (annexin A2) [SID160717772] | G2 robust z-score = -0.525; Call = inactive
PIK3CG [SID160714347] | G2 robust z-score = 5.43; Call = active
PIK3CG [SID160714348] | G2 robust z-score = -1.43; Call = inactive
PIK3CG [SID160714349] | G2 robust z-score = 0.0805; Call = inactive
